From patent US20060174355A1
These are yes or no findings as the source states them, for the method shown. In cells and extracts the contact can be indirect. Some results given as binding are weak or reduced against the parent protein; the word gives no strength. Tags and fused reporters may be left off the sequences shown.

Columns and labels:
[1] = target: T1, GST-ERR3 (glutathione S-transferase-fused ERR3) (human) (UniProt P62508); experiment: GST pull-down, autoradiograph (FIG. 3D)
T1 sequence (looked up): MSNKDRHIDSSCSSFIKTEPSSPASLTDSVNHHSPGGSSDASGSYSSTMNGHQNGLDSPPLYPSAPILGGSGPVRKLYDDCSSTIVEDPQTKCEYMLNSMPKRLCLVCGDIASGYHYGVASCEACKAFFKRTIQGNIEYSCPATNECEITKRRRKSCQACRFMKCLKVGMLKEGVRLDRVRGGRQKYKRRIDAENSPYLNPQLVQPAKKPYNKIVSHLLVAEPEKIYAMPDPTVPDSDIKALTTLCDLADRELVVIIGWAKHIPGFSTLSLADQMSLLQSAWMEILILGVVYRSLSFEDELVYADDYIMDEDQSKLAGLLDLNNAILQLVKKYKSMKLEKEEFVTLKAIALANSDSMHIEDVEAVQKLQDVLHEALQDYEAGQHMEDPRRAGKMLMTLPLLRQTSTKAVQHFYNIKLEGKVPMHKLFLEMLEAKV

[2] = target: T1, GST-ERR3 (glutathione S-transferase-fused ERR3) (human); experiment: GST pull-down of in vitro translated 35S-ERRL1, SDS-PAGE and autoradiography

binding [1]: binds
binding [2]: binds
B1: ERRL1 (ERR ligand 1), mouse (ligand)
chain: MAGNDCGALLDEELSSFFLNYLSDTQGGDSGEEQLCADLPELDLSQLDASDFDSATCFGELQWCPETSETEPSQYSPDDSELFQIDSENEALLAALTKTLDDIPEDDVGLAAFPELDEGDTPSCTPASPAPLSAPPSPTLERLLSPASDVDELSLLQKLLLATSSPTASSDALKDGATWSQTSLSSRSQRPCVKVDGTQDKKTPTLRAQSRPCTELHKHLTSVLPCPRVKACSPTPHPSPRLLSKEEEEEVGEDCPSPWLTPASPQDSLAQDTASPDSAQPPEEDVRAMVQLIRYMHTYCLPQRKLPQRAPEPIPQACSSLSRQVQPRSRHPPKAFWTEFSILRELLAQDILCDVSKPYRLAIPVYASLTPQSRPRPPKDSQASPAHSAMAEEVRITASPKSTGPRPSLRPLRLEVKRDVNKPTRQKREEDEEEEEEEEEEEEEKEEEEEEWGRKRPGRGLPWTKLGRKMDSSVCPVRRSRRLNPELGPWLTFTDEPLGALPSMCLDTETHNLEEDLGSLTDSSQGRQLPQGSQIPALESPCESGCGDTDEDPSCPQPTSRDSSRCLMLALSQSDSLGKKSFEESLTVELCGTAGLTPPTTPPYKPMEEDPFKPDTKLSPGQDTAPSLPSPEALPLTATPGASHKLPKRHPERSELLSHLQHATTQPVSQAGQKRPFSCSFGDHDYCQVLRPEAALQRKVLRSWEPIGVHLEDLAQQGAPLPTETKAPRREANQNCDPTHKDSMQLRDHEIRASLTKHFGLLETALEGEDLASCKSPEYDTVFEDSSSSSGESSFLLEEEEEEEEGGEEDDEGEDSGVSPPCSDHCPYQSPPSKASRQLCSRSRSSSGSSSCSSWSPATRKNFRRESRGPCSDGTPSVRHARKRREKAIGEGRVVYIRNLSSDMSSRELKKRFEVFGEIVECQVLTRSKRGQKHGFITFRCSEHAALSVRNGATLRKRNEPSFHLSYGGLRHFRWPRYTDYDPTSEESLPSSGKSKYEAMDFDSLLKEAQQSLH
